Results are given in words; binding and its absence hold for the method and conditions named. Some binding calls cover weakened binding; strength is not graded here. For part of these data: Tags and fused reporters may be left off the sequences shown. One block for each molecule: values may come before it.
Assays:
LIGHT-ASPD (human) [1] = assay: Streptactin-ELISA, LIGHT-ASPD (0-10 microgram/ml) immobilized via Strep-tag II, 100 ng/ml HVEM-Fc
LIGHT-ASPD (human) [2] = assay: Streptactin-ELISA (legend of FIG. 6)
TRAILR2mut-ASPD (human) [3] = assay: Streptactin-ELISA, supernatant immobilized, varying concentrations of TRAIL-Receptor 2-Fc (FIG. 14D)
TRAILR1mut-ASPD (human) [4] = assay: as above
TRAIL-ASPD (human) [5] = assay: as above
TRAILR2mut-ASPD (human) [6] = assay: Streptactin-ELISA, 1 microgram/ml purified trimeric ligand immobilized via Strep-tag II, TRAIL-Receptor 2-Fc (FIG. 15B)
TRAILR1mut-D-SPD (human) [7] = assay: Streptactin-ELISA, supernatant immobilized, constant concentration of TRAIL-Receptor 2-Fc (FIG. 14B)
[8] = target: TRAILR2mut-D-CCSPD (human); assay: as above
TRAILR2mut-D-SPD (human) = assay: as above
TRAIL-D-CCSPD (human) = assay: as above
TRAIL-A-CCSPD (human) = assay: as above
[9] = target: TRAILR1mut-D-CCSPD (human); assay: as above
[10] = target: TRAILR2mut-A-CCSPD (human); assay: as above
TRAILR2mut-ASPD (human) [11] = assay: as above
TRAILR1mut-ASPD (human) [12] = assay: as above
TRAIL-D-SPD (human) = assay: as above
[13] = target: TRAILR1mut-A-CCSPD (human); assay: as above
TRAIL-ASPD (human) [14] = assay: as above
APRIL-ASPD (human) [15] = assay: Streptactin-ELISA (legend of FIG. 34)
APRIL-ASPD (human) [16] = assay: Streptactin-ELISA, APRIL-ASPD from HEK293 supernatant immobilized, varying concentrations of TACI-Fc, anti-human Fc peroxidase
TRAILR1mut-D-SPD (human) [17] = assay: Streptactin-ELISA, supernatant immobilized, constant concentration of TRAIL-Receptor 1-Fc (FIG. 14A)
[18] = target: TRAILR1mut-D-CCSPD (human); assay: as above
TRAILR1mut-ASPD (human) [19] = assay: as above
[20] = target: TRAILR1mut-A-CCSPD (human); assay: as above
TRAILR1mut-ASPD (human) [21] = assay: Streptactin-ELISA, supernatant immobilized, varying concentrations of TRAIL-Receptor 1-Fc (FIG. 14C)
TRAIL-ASPD (human) [22] = assay: as above
TRAILR1mut-ASPD (human) [23] = assay: Streptactin-ELISA, 1 microgram/ml purified trimeric ligand immobilized via Strep-tag II, TRAIL-Receptor 1-Fc (FIG. 15A)

Sequences of proteins named here, by UniProt entry; tags and fusion partners are left off. Residues count along the entry.
UniProt Q92956, residues 37-202: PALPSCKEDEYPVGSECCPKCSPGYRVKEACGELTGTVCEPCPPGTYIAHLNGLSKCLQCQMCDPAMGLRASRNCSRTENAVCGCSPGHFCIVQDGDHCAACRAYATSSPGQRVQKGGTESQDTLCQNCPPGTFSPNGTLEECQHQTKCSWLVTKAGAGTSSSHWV
UniProt O14763, residues 54-182: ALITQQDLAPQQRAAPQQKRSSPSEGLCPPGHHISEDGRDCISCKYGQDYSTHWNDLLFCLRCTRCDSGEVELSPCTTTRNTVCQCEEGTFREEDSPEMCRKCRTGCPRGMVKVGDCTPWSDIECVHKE

- binding (LIGHT-ASPD (human) [1]): binds
- binding (LIGHT-ASPD (human) [2]): binds
Molecule: HVEM-Fc (from UniProt Q92956 37-202) (Fc fusion)

- binding (TRAILR2mut-ASPD (human) [3]): binds
- binding (TRAILR1mut-ASPD (human) [4]): binds
- binding (TRAIL-ASPD (human) [5]): binds
- binding (TRAILR2mut-ASPD (human) [6]): binds
- binding (TRAILR1mut-D-SPD (human) [7]): binds
- binding [8]: binds
- binding (TRAILR2mut-D-SPD (human)): binds
- binding (TRAIL-D-CCSPD (human)): binds
- binding (TRAIL-A-CCSPD (human)): binds
- binding [9]: binds
- binding [10]: binds
- binding (TRAILR2mut-ASPD (human) [11]): binds
- binding (TRAILR1mut-ASPD (human) [12]): binds
- binding (TRAIL-D-SPD (human)): binds
- binding [13]: binds
- binding (TRAIL-ASPD (human) [14]): binds
Molecule: TRAIL-Receptor 2-Fc (from UniProt O14763 54-182) (Fc fusion)

- binding (APRIL-ASPD (human) [15]): binds
- binding (APRIL-ASPD (human) [16]): binds
B1: TACI-Fc (Fc fusion, UniProt O14836 2-166, looked up, not shown: a dimerising Fc or GST)
chain: SGLGRSRRGGRSRVDQEERFPQGLWTGVAMRSCPEEQYWDPLLGTCMSCKTICNHQSQRTCAAFCRSLSCRKEQGKFYDHLLRDCISCASICGQHPKQCAYFCENKLRSPVNLPPELRRQRSGEVENNSDNSGRYQGLEHRGSEASPALPGLKLSADQVALVYST

- binding (TRAILR1mut-D-SPD (human) [17]): binds
- binding [18]: binds
- binding (TRAILR1mut-ASPD (human) [19]): binds
- binding [20]: binds
- binding (TRAILR1mut-ASPD (human) [21]): binds
- binding (TRAIL-ASPD (human) [22]): binds
- binding (TRAILR1mut-ASPD (human) [23]): binds
B2: TRAIL-Receptor 1-Fc (Fc fusion, UniProt O00220 109-239, looked up, not shown: a dimerising Fc or GST)
chain: ATIKLHDQSIGTQQWEHSPLGELCPPGSHRSEHPGACNRCTEGVGYTNASNNLFACLPCTACKSDEEERSPCTTTRNTACQCKPGTFRNDNSAEMCRKCSRGCPRGMVKVKDCTPWSDIECVHKESGNGHN

— patent US20150126710A1 (APOGENIX, published 2015)
